In PMC11237798:
Results are given in words; binding and its absence hold for the method and conditions named. In cells and extracts the contact can be indirect. Here binding means that the protein was enriched with, or labelled near, the bait; the list need not be complete. Where a sequence is shown, tags or fusion partners need not be part of it.

T1: Flag tagged PA0034 (two-component response regulator) (Pseudomonas aeruginosa PAO1) (UniProt P24908)
T1 sequence: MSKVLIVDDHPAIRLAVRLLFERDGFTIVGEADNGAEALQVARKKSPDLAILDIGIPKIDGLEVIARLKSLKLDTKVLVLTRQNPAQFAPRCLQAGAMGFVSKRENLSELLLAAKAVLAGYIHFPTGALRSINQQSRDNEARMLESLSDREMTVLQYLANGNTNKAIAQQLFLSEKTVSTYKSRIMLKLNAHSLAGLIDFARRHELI

B1: PhoQ (histidine kinase), endogenous (enzyme, UniProt Q9I4F8 34-448)
chain: IALENTIEQRLAADVATLVSAARVEKGRLVMPEHLPVEEFNLPEAKVLGYIYDQNGDLLWRSTSAADESINYTPRYDGRGNEFHTTRDAKGEEFFVFDVEIDLLRGKQAAYSIVTMQSVSEFESLLKGFREQLYLWLGGALLVLLGLLWLGLTWGFRAMRGLSSELDQIESGERESLSEEHPRELLRLTHSLNRLLRSEHKQRERYRHSLGDLAHSLKTPLAVLQGVGDQLAEEPGNREQVRVLQGQIERMSQQIGYQLQRASLRKSGLVRHREQLAPLVETLCDALDKVYRDKRVSLQRDFSPSFSVPVERGALLELLGNLLENAYRLCLGRVRVGARLGPGYSELWVEDDGPGVPAEQRARIIRRGERADTQHPGQGIGLAVALDIIESYDGELSLDDSELGGACFRIRFATV

molecular target: T1, Flag tagged PA0034 (two-component response regulator) (Pseudomonas aeruginosa PAO1); assay: affinity purification with mass spectrometry; Flag-PA0034 expressed in the ΔPA0034 strain (empty vector strain as control); lysate with anti-Flag magnetic beads overnight at 4°C, washed thrice with PBST; gel bands analysed by LC-MS/MS

Molecule	binding
PA1458 (histidine kinase), endogenous (from UniProt G3XCT6) (enzyme)	binds
LadS (histidine kinase), endogenous (from UniProt Q9HX42) (enzyme)	binds
B1	binds
